US20150164895A1, “DETERMINING SENSITIVITY OF CELLS TO B-RAF INHIBITOR TREATMENT BY DETECTING KRAS MUTATION AND RTK EXPRESSION LEVELS” (GENENTECH, INC., priority 2009, published 2015)
Where “and” joins values, the source holds several entries; their conditions need not be identical. Identical values can stand only once. Further values from the same series stand in other lists.

Tests used:
[1] = tested on: LXFA 983/9N4 (Lung, adeno); experiment: Oncotest Exp H331: growth of LXFA 983 lung tumor xenograft after dosing with B-RAF inhibitor; assay type: in vivo, mice; conditions: H331-2, 100 mg/kg/day, Days 0-21, individual tumors, listed as G-026887
Description: (§1) FIGS. 10-18 depict growth in lung tumor xenografts after dosing with GDC-0879.
(§2) The data are shown below, and in FIGS. 10-14 for Experiment H331 and FIGS. 15-18 for Experiment H327.

[2] = tested on: lung tumor xenografts; experiment: Experiment H327: growth in lung tumor xenografts after dosing with B-RAF inhibitor; assay type: in vivo, mice; conditions: individual tumor; for Relative tumor volume: LXFA 1041/9N4; for Absolute tumor volume: (a*b*b)/2: LXFA 1041/9N4 Lung, adeno, listed as G-026887, 100 mg/kg/day
Description: as §1, §2

Compound: OCCn1cc(-c2ccc3c(c2)CC/C3=N\O)c(-c2ccncc2)n1 [GDC-0879, 2-{4-[(1E)-1-(hydroxyimino)-2,3-dihydro-1H-inden-5-yl]-3-(pyridine-4-yl)-1H-pyrazol-1-yl}ethan-1-ol]
- Absolute tumor volume: (a*b*b)/2 ([1]; study day 7): 113.4 mm3
- Relative tumor volume ([1]; study day 7): 293.3%
- Absolute tumor volume: (a*b*b)/2 ([1]; study day 10): 200.9 mm3
- Relative tumor volume ([1]; study day 10): 311.1%
- Absolute tumor volume: (a*b*b)/2 ([1]; study day 14): 461.7 mm3
- Relative tumor volume ([1]; study day 14): 382.1%
- Absolute tumor volume: (a*b*b)/2 ([1]; study day 17): 640.5 mm3
- Relative tumor volume ([1]; study day 17): 580.3%
- Absolute tumor volume: (a*b*b)/2 ([1]; study day 21): 1125.0 mm3
- Relative tumor volume ([1]; study day 21): 669.2%
- Relative tumor volume ([2]; H327-2, 100 mg/kg/day po Days 0-20, study day 3, listed as G-026887): 159.3% and 120.5% and 149.1% and 170.6% and 182.9%
- Relative tumor volume ([2]; H327-2, 100 mg/kg/day po Days 0-20, study day 7, listed as G-026887): 263.6% and 224.4% and 197.1% and 210.3% and 205.9% and 232.3%
- Relative tumor volume ([2]; H327-2, 100 mg/kg/day po Days 0-20, study day 10, listed as G-026887): 423.4% and 341.8% and 306.8% and 319.0% and 398.1% and 329.2%
- Relative tumor volume ([2]; H327-2, 100 mg/kg/day po Days 0-20, study day 14, listed as G-026887): 1016.2% and 531.2% and 353.0% and 533.4% and 528.1% and 442.2%
- Relative tumor volume ([2]; H327-2, 100 mg/kg/day po Days 0-20, study day 17, listed as G-026887): 1519.8% and 687.7% and 584.5% and 791.4% and 587.5% and 537.8%
- Relative tumor volume ([2]; H327-2, 100 mg/kg/day po Days 0-20, study day 20, listed as G-026887): 1703.4% and 799.1% and 668.2% and 931.0% and 796.3% and 642.3%
- Absolute tumor volume: (a*b*b)/2 ([2]; H327-2, 100 mg/kg/day po Days 0-20, study day 0): 86.2 mm3 and 75.7 mm3 and 81.1 mm3 and 117.0 mm3 and 123.0 mm3
- Absolute tumor volume: (a*b*b)/2 ([2]; H327-2, 100 mg/kg/day po Days 0-20, study day 3): 159.5 mm3 and 120.6 mm3 and 109.3 mm3 and 120.9 mm3 and 199.6 mm3 and 225.0 mm3
- Absolute tumor volume: (a*b*b)/2 ([2]; H327-2, 100 mg/kg/day po Days 0-20, study day 7): 180.3 mm3 and 164.8 mm3 and 169.9 mm3 and 178.9 mm3 and 170.6 mm3 and 240.9 mm3 and 285.8 mm3
- Absolute tumor volume: (a*b*b)/2 ([2]; H327-2, 100 mg/kg/day po Days 0-20, study day 10): 228.1 mm3 and 264.7 mm3 and 258.8 mm3 (2×) and 278.4 mm3 and 465.8 mm3 and 405.0 mm3
- Absolute tumor volume: (a*b*b)/2 ([2]; H327-2, 100 mg/kg/day po Days 0-20, study day 14): 451.2 mm3 and 635.1 mm3 and 402.2 mm3 and 320.3 mm3 and 432.7 mm3 and 617.9 mm3 and 544.0 mm3
- Absolute tumor volume: (a*b*b)/2 ([2]; H327-2, 100 mg/kg/day po Days 0-20, study day 17): 643.5 mm3 and 949.9 mm3 and 520.7 mm3 and 530.5 mm3 and 642.0 mm3 and 687.3 mm3 and 661.5 mm3
- Absolute tumor volume: (a*b*b)/2 ([2]; H327-2, 100 mg/kg/day po Days 0-20, study day 20): 853.1 mm3 and 1064.6 mm3 and 605.0 mm3 and 606.4 mm3 and 755.2 mm3 and 931.6 mm3 and 790.1 mm3
- Relative tumor volume ([2]; H327-5, 100 mg/kg/day po Day 0, study day 0): 100.0%
